Reference: patent US6100032

By UniProt entry, the sequences of proteins in these tests, tags left out. Residues count along the entry.
UniProt P84022, 1-200: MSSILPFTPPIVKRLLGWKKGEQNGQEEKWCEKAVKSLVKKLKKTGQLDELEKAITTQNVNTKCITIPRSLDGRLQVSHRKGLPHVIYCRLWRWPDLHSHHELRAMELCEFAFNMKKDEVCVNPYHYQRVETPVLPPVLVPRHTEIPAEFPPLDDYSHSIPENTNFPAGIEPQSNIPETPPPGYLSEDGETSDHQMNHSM

Assays:
[1] = biological target: T1, GST-Smad4/MH1 (Homo sapiens) (UniProt Q13485); assay: EMSA; conditions: specific but inefficient, typically less than 5% of input probe shifted; purified recombinant protein; protein details: GST N-terminal (pGEX2TK, Pharmacia); label: 32P
T1 sequence (looked up): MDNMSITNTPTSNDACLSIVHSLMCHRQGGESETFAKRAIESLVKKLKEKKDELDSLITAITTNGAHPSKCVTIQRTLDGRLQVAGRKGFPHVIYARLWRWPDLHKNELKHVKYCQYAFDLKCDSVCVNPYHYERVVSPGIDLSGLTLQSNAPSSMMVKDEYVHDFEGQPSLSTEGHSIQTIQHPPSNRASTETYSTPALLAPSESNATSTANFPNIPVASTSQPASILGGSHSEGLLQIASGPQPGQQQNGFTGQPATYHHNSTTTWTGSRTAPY

[2] = biological target: GST-Smad3/MH1 (Homo sapiens) (UniProt P84022); assay: EMSA; conditions: specific but inefficient, typically less than 5% of input probe shifted; purified recombinant protein; protein details: GST N-terminal (pGEX2TK, Pharmacia); label: 32P

“TTTGTGCTTGGCTGCCGTCGCGATTCGACAACTTTGG (double strand) [Vg probe]”: binds more weakly [1]; binds more weakly [2].

Weaker means in comparison with the reference protein, sequence or condition of that experiment. For some assays here: Protein sequences can lack the tags named with them.
